{"source": "patent US12180168B1", "about": "“3-[4,4-bis(4-nitrophenyl)-2,5-dioxoimidazolidin-1-yl]propanoic acid as an antimicrobial compound” (KING FAISAL UNIVERSITY, priority 2024, dated 2024)", "assay_in_all_cases": "Antimicrobial testing by agar dilution", "format_in_all_cases": "cell-based", "key": {"Staphylococcus aereus": {"tested_on": "Staphylococcus aereus"}, "Escherichia Coli": {"tested_on": "Escherichia Coli"}, "Pseudomonas aeruginosa": {"tested_on": "Pseudomonas aeruginosa"}, "Candida albicans": {"tested_on": "Candida albicans"}, "[1]": {"conditions": "dilution rate 1:100, exposure time 10 min"}, "[2]": {"conditions": "dilution rate 1:100, exposure time 20 min"}, "[3]": {"conditions": "dilution rate 1:100, exposure time 40 min"}, "[4]": {"conditions": "dilution rate 1:100, exposure time 60 min"}, "[5]": {"conditions": "dilution rate 1:200, exposure time 10 min"}, "[6]": {"conditions": "dilution rate 1:200, exposure time 20 min"}, "[7]": {"conditions": "dilution rate 1:200, exposure time 40 min"}, "[8]": {"conditions": "dilution rate 1:200, exposure time 60 min"}, "[9]": {"conditions": "dilution rate 1:400, exposure time 10 min"}, "[10]": {"conditions": "dilution rate 1:400, exposure time 20 min"}, "[11]": {"conditions": "dilution rate 1:400, exposure time 40 min"}, "[12]": {"conditions": "dilution rate 1:400, exposure time 60 min"}, "[13]": {"conditions": "dilution rate 1:800, exposure time 10 min"}, "[14]": {"conditions": "dilution rate 1:800, exposure time 20 min"}, "[15]": {"conditions": "dilution rate 1:800, exposure time 40 min"}, "[16]": {"conditions": "dilution rate 1:800, exposure time 60 min"}}, "note": "At least one compound was matched to its structure with a doubt left."}
{"smiles": "NC(=O)N/N=C/c1ccc([N+](=O)[O-])o1", "note": "[Furacilin]", "values": [{"measurement": "antimicrobial activity, St. Aereus", "setting": "Staphylococcus aereus; [1]", "result": "−"}, {"measurement": "antimicrobial activity, St. Aereus", "setting": "Staphylococcus aereus; [2]", "result": "−"}, {"measurement": "antimicrobial activity, St. Aereus", "setting": "Staphylococcus aereus; [3]", "result": "−"}, {"measurement": "antimicrobial activity, St. Aereus", "setting": "Staphylococcus aereus; [4]", "result": "−"}, {"measurement": "antimicrobial activity, St. Aereus", "setting": "Staphylococcus aereus; [5]", "result": "+"}, {"measurement": "antimicrobial activity, St. Aereus", "setting": "Staphylococcus aereus; [6]", "result": "+"}, {"measurement": "antimicrobial activity, St. Aereus", "setting": "Staphylococcus aereus; [7]", "result": "+"}, {"measurement": "antimicrobial activity, St. Aereus", "setting": "Staphylococcus aereus; [8]", "result": "+"}, {"measurement": "antimicrobial activity, St. Aereus", "setting": "Staphylococcus aereus; [9]", "result": "+"}, {"measurement": "antimicrobial activity, St. Aereus", "setting": "Staphylococcus aereus; [10]", "result": "+"}, {"measurement": "antimicrobial activity, St. Aereus", "setting": "Staphylococcus aereus; [11]", "result": "+"}, {"measurement": "antimicrobial activity, St. Aereus", "setting": "Staphylococcus aereus; [12]", "result": "+"}, {"measurement": "antimicrobial activity, St. Aereus", "setting": "Staphylococcus aereus; [13]", "result": "+"}, {"measurement": "antimicrobial activity, St. Aereus", "setting": "Staphylococcus aereus; [14]", "result": "+"}, {"measurement": "antimicrobial activity, St. Aereus", "setting": "Staphylococcus aereus; [15]", "result": "+"}, {"measurement": "antimicrobial activity, St. Aereus", "setting": "Staphylococcus aereus; [16]", "result": "+"}, {"measurement": "antimicrobial activity, E. Coli", "setting": "Escherichia Coli; [1]", "result": "−"}, {"measurement": "antimicrobial activity, E. Coli", "setting": "Escherichia Coli; [2]", "result": "−"}, {"measurement": "antimicrobial activity, E. Coli", "setting": "Escherichia Coli; [3]", "result": "−"}, {"measurement": "antimicrobial activity, E. Coli", "setting": "Escherichia Coli; [4]", "result": "−"}, {"measurement": "antimicrobial activity, E. Coli", "setting": "Escherichia Coli; [5]", "result": "+"}, {"measurement": "antimicrobial activity, E. Coli", "setting": "Escherichia Coli; [6]", "result": "+"}, {"measurement": "antimicrobial activity, E. Coli", "setting": "Escherichia Coli; [7]", "result": "+"}, {"measurement": "antimicrobial activity, E. Coli", "setting": "Escherichia Coli; [8]", "result": "+"}, {"measurement": "antimicrobial activity, E. Coli", "setting": "Escherichia Coli; [9]", "result": "+"}, {"measurement": "antimicrobial activity, E. Coli", "setting": "Escherichia Coli; [10]", "result": "+"}, {"measurement": "antimicrobial activity, E. Coli", "setting": "Escherichia Coli; [11]", "result": "+"}, {"measurement": "antimicrobial activity, E. Coli", "setting": "Escherichia Coli; [12]", "result": "+"}, {"measurement": "antimicrobial activity, E. Coli", "setting": "Escherichia Coli; [13]", "result": "+"}, {"measurement": "antimicrobial activity, E. Coli", "setting": "Escherichia Coli; [14]", "result": "+"}, {"measurement": "antimicrobial activity, E. Coli", "setting": "Escherichia Coli; [15]", "result": "+"}, {"measurement": "antimicrobial activity, E. Coli", "setting": "Escherichia Coli; [16]", "result": "+"}, {"measurement": "antimicrobial activity, Ps. aeruginosa", "setting": "Pseudomonas aeruginosa; [1]", "result": "+"}, {"measurement": "antimicrobial activity, Ps. aeruginosa", "setting": "Pseudomonas aeruginosa; [2]", "result": "+"}, {"measurement": "antimicrobial activity, Ps. aeruginosa", "setting": "Pseudomonas aeruginosa; [3]", "result": "+"}, {"measurement": "antimicrobial activity, Ps. aeruginosa", "setting": "Pseudomonas aeruginosa; [4]", "result": "+"}, {"measurement": "antimicrobial activity, Ps. aeruginosa", "setting": "Pseudomonas aeruginosa; [5]", "result": "+"}, {"measurement": "antimicrobial activity, Ps. aeruginosa", "setting": "Pseudomonas aeruginosa; [6]", "result": "+"}, {"measurement": "antimicrobial activity, Ps. aeruginosa", "setting": "Pseudomonas aeruginosa; [7]", "result": "+"}, {"measurement": "antimicrobial activity, Ps. aeruginosa", "setting": "Pseudomonas aeruginosa; [8]", "result": "+"}, {"measurement": "antimicrobial activity, Ps. aeruginosa", "setting": "Pseudomonas aeruginosa; [9]", "result": "+"}, {"measurement": "antimicrobial activity, Ps. aeruginosa", "setting": "Pseudomonas aeruginosa; [10]", "result": "+"}, {"measurement": "antimicrobial activity, Ps. aeruginosa", "setting": "Pseudomonas aeruginosa; [11]", "result": "+"}, {"measurement": "antimicrobial activity, Ps. aeruginosa", "setting": "Pseudomonas aeruginosa; [12]", "result": "+"}, {"measurement": "antimicrobial activity, Ps. aeruginosa", "setting": "Pseudomonas aeruginosa; [13]", "result": "+"}, {"measurement": "antimicrobial activity, Ps. aeruginosa", "setting": "Pseudomonas aeruginosa; [14]", "result": "+"}, {"measurement": "antimicrobial activity, Ps. aeruginosa", "setting": "Pseudomonas aeruginosa; [15]", "result": "+"}, {"measurement": "antimicrobial activity, Ps. aeruginosa", "setting": "Pseudomonas aeruginosa; [16]", "result": "+"}, {"measurement": "antimicrobial activity, Candida albicans", "setting": "Candida albicans; [1]", "result": "−"}, {"measurement": "antimicrobial activity, Candida albicans", "setting": "Candida albicans; [2]", "result": "−"}, {"measurement": "antimicrobial activity, Candida albicans", "setting": "Candida albicans; [3]", "result": "+"}, {"measurement": "antimicrobial activity, Candida albicans", "setting": "Candida albicans; [4]", "result": "+"}, {"measurement": "antimicrobial activity, Candida albicans", "setting": "Candida albicans; [5]", "result": "+"}, {"measurement": "antimicrobial activity, Candida albicans", "setting": "Candida albicans; [6]", "result": "+"}, {"measurement": "antimicrobial activity, Candida albicans", "setting": "Candida albicans; [7]", "result": "+"}, {"measurement": "antimicrobial activity, Candida albicans", "setting": "Candida albicans; [8]", "result": "+"}, {"measurement": "antimicrobial activity, Candida albicans", "setting": "Candida albicans; [9]", "result": "+"}, {"measurement": "antimicrobial activity, Candida albicans", "setting": "Candida albicans; [10]", "result": "+"}, {"measurement": "antimicrobial activity, Candida albicans", "setting": "Candida albicans; [11]", "result": "+"}, {"measurement": "antimicrobial activity, Candida albicans", "setting": "Candida albicans; [12]", "result": "+"}, {"measurement": "antimicrobial activity, Candida albicans", "setting": "Candida albicans; [13]", "result": "+"}, {"measurement": "antimicrobial activity, Candida albicans", "setting": "Candida albicans; [14]", "result": "+"}, {"measurement": "antimicrobial activity, Candida albicans", "setting": "Candida albicans; [15]", "result": "+"}, {"measurement": "antimicrobial activity, Candida albicans", "setting": "Candida albicans; [16]", "result": "+"}]}
